The results in this text go back to PubChem BioAssay AID445 (National Center for Advancing Translational Sciences (NCATS), 2006).

The list shows a part of the results. Further columns of the screen follow, without active or inactive calls. Most of these compounds were active or inconclusive in the main read-out, so they are no random draw. The note in brackets gives the kind of curve behind each potency; many fits are weak.

One may read the AC50 as the midpoint of the concentration-response curve, whichever way the signal moves.

The experiment can be described thus: IkB Signaling. As to conditions: ABC-DLBCL IkBa-CBG/CBR dual luciferase ratio (green luciferase fused to IkBa over red control in OCI-Ly3 lymphoma cells), 4 h; measured here: control luc red channel unless noted. The method, boiled down:
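Luminescence ratio of IκBα-fused green versus native red beetle luciferase in OCI-Ly3 cells, 4 h post-doxycycline with compound; red signal alone, scaled from basal (0%) to zero light (-100%), flagged nonspecific or cytotoxic effects.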
Take `COc1ccc(C2c3c(oc4ccc(F)cc4c3=O)C(=O)N2Cc2ccc3c(c2)OCO3)cc1` (configuration not stated): the AC50 was 5.01 µM [rising, full curve, poor fit].

For the compound `CCOC(=O)Cn1c(=O)oc2cc(S(=O)(=O)NCc3ccccn3)ccc21`, the AC50 is 12.6 µM [falling, partial curve].

In the case of `N#C/C(=C\c1ccccc1)c1nc(-c2cc3cc(Br)ccc3oc2=O)cs1`, the AC50 is 0.158 µM [falling, full curve, poor fit].

Turning to `CCc1ccc(CNCc2c(C(=O)O)n(Cc3cccc(F)c3)c3cc(OC)ccc23)cc1`, the AC50 is 25.1 µM [falling, partial curve].

With `Cc1cccc(NC(=O)c2c(NC(=O)C(F)(F)F)sc3c2CCCCC3)c1`, the AC50 was 0.631 µM [falling, full curve].

Consider `CCOC(=O)c1cccc(Nc2c3c(nc4ccccc24)CCC3)c1`, for which the AC50 is 20 µM [falling, partial curve].

For the compound `O=C(NCCS(=O)(=O)N1CCN(c2ccccc2)CC1)C(c1ccccc1)c1ccccc1`, the AC50 is 0.00631 µM [falling, full curve, poor fit].

As to `O=C(CSc1nccn1-c1ccc(Cl)cc1)Nc1ccc2c(c1)OCO2`, the AC50 is 15.8 µM [falling, partial curve].

Regarding `COc1ccc(NC(=O)Cn2c(=O)oc3cc(S(=O)(=O)N4CCC(C)CC4)ccc32)c(OC)c1`, the AC50 is 15.8 µM [falling, single point].

For the compound `CCc1c(C)nc2cc(-c3cc(OC)cc(OC)c3)nn2c1N1CCCC1`, the AC50 was 25.1 µM [falling, single point].

Regarding `CCCS(=O)(=O)c1c(Nc2ccccc2C)sc(C(=O)c2ccccc2)c1N`, the AC50 is 25.1 µM [falling, single point].

For the compound `Cc1ccc(NS(=O)(=O)c2cc(Br)cc3c2N(C(=O)C2CC2)CC3)cc1C`, the AC50 was 15.8 µM [falling, partial curve].

With `CC(C)NCC(O)Cn1c2c(c3ccccc31)CCc1c-2cnn1-c1ccccc1` (configuration not stated), the AC50 was 7.94 µM [falling, partial curve].

`CCOc1ccccc1CNC(=O)CCn1ccc2cc(S(=O)(=O)N3CCC(C)CC3)ccc21`: the AC50 is 15.8 µM [falling, single point].

Regarding `COC(=O)c1ccc(Cn2nnc3sc4c(c3c2=O)CCC(C)C4)cc1` (configuration not stated), the concentration at half-maximal activity (AC50) was 12.6 µM [falling, partial curve].

For the compound `COc1ccc(N2C(=O)CC(Sc3nnc(-c4ccccc4)o3)C2=O)cc1` (configuration not stated), the AC50 is 25.1 µM [falling, partial curve].

Take `O=C(c1ccc(Cn2cc(Br)cn2)cc1)N1CCN(c2ccccc2)CC1`: the AC50 was 15.8 µM [falling, partial curve].
